Assay results: patent publication US20040197268A1, “Method of imaging amyloid deposits using substituted rhodanine derivatives” (priority 1999, published 2004)

By UniProt entry, the sequences of proteins in these tests, tags left out. Residues count along the entry.
UniProt P05067, 672-711 limits assumed: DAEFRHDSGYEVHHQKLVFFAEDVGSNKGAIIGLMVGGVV

Molecular target: Aβ(1-40) (Homo sapiens, UniProt P05067)
Assay: BASSR (Beta-Amyloid Self-Seeding Radioassay), inhibitors of self-seeded amyloid fibril growth
Conditions: read-out: BASSR IC50; 30 μM soluble Aβ(1-40) + 125I-labeled Aβ(1-40), pH 7.5, 37° C., 3 to 5 hours, filtration
Protocol: BASSR (Beta-Amyloid Self-Seeding Radioassay)
An assay for inhibitors of self-seeded amyloid fibril growth
Assay Buffer—50 mM sodium phosphate, pH 7.5, 100 mM NaCl, 0.02% NaN3, 1 M urea (filter and store at 4° C.)
Soluble Aβ(1-40) peptide (Bachem, Torrance, Calif.)—2.2 mg/mL in deionized H2O (stored in aliquots at −20° C., keep on ice when thawed) will self-seed after 1 week storage. Typically, the solution should be stored until no lag phase is seen in the assay.
^125I-labeled Aβ(1-40)—150K-350K cpm/μL in 100% acetonitrile—0.1% trifluoroacetic acid (TFA)—1% β-mercaptoethanol (aliquots stored at −20° C.). ^125I-labeled Aβ(1-40) can be made in accordance with the procedure set forth by H. Levine, III in Neurobiol. Aging, 16:755 (1995), which is hereby incorporated by reference, or this reagent may be purchased from Amersham, Arlington Heights, Ill.
Final assay conditions: 30 μM soluble Aβ(1-40) in deionized water in assay buffer+20-50K cpm ^125I-labeled Aβ(1-40) per assay. […]
6) Remove the aluminum film and add 200 μL/well of ice cold assay buffer with urea, collecting the radiolabeled fibrils by vacuum filtration through 0.2 μm pore size GVWP filters in 96-well plates (Millipore MAGV N22, Bedford, Mass.). Determine the radioactivity of the filters using standard methods well-known to those skilled in the art.

With CCCCN(CCCC)c1ccc(/C=C2\SC(=S)N(Cc3nnn[nH]3)C2=O)cc1 [Example 20, (Z) 5-(4-Dibutylamino-benzylidene)-3(H-tetrazol-5-ylmethyl)-2-thioxo-thiazolidin-4-one] the IC50 was 1 µM and 8.5 µM.

A number of entries come with more than one value. Only these are listed. An entry can have further records. The records of an entry differ, and nothing given here explains why; they may come from other doses, times, organisms or constructs than stated.
